{
  "source": "paper PMC5432864",
  "biological_target": "Flag-tagged porcine 2'-5'-oligoadenylate synthetase-like protein (pOASL) (porcine)",
  "experiment": "co-IP",
  "note": "Results are given in words; binding and its absence hold for the method and conditions named. Binding seen in cells or lysates may run through a third protein. Where a sequence is shown, tags or fusion partners need not be part of it.",
  "data": [
    {"binder": "Myc-tagged porcine RIG-I (pRIG-I) (protein, UniProt Q9GLV6 1-940) MTAEQRRNLHAFGDYVRKTLDPTFILSYMAPWFRDDEVQHIQAEKNNKGPTEAASLFLQFLLELQEEGWFRGFLDALNQAGYCGLCEAIESWDFQKIEKLEEYRSLLRRLQPEFKTTINPKDILPEIAECLISQECEEILQICSSKGLMAGAEKMVECLLRSDKENWPKTLKLALEKEESRFSELWMVDKGAEDVKMKDLEDDEMKTCDVQIFYKEEPENQNLSQNSCSSSAPHTYSPLKPRKYQLELALPAQNGKNTIICAPTGCGKTFVSLLICEHHLKKFPRGRKGKVVFFAIQLPVYEQQKSVFSKHFERLGYKVAGISGATSDTVCVEQIVENSDIIILTPQILVNCLTNGTIPSLSVFTLMIFDECHNTSKQHPYNVIMFSYLDRKLGGSSDSLPQVIGLTASVGVGDAKNKAEATEYICKLCASLDTSVIATVRDNLEELEEVVYKPQKFFRKVELRTTDRFKCIISQLMMEIESLAKSIFEELGTITLGGLFQIQNSNFGTQKYEQWIVKVQKECAVFQMPDKDKESRICKALFSYMSHLRIYNDALIINEHARMKDALDYLKDFFRNIRAAGFDEIEQDLTQRFEEKLQELESISIDPSNENPKLRDLCFILQEEYHLNPETRTILFVKTRALVDALKKWIKENPKLSFLKPSILTGRGKTNQNIGMTLPAQKCVLDTFRTDKDNKILITTSVADEGIDIAQCNLVILYEYVGNVIKMIQTRGRGRARGSKCFLLTANADLIDKEKMNMYKEEMMNGAILILQTWDEAVFKEKIHQIQIREKIIRDNQGKPEPVPDKKTKKLLCKKCKAFACYTADIRMVEKCHFTVVGDAFRERFVSKLHPKPKSFGNIEKRAKIYCARPDCSHDWGIYVRYKAFEMPFIKIESFVVEDIATGVQTVHAKWKDFNFEKLSFDAAEMAGGAQDLGLQGMGN", "values": [
      {"measurement": "binding", "value": "no binding"}
    ]}
  ]
}
